In PMC5354272:
No constants are given. Whether binding was seen depends on the method and setting. In cells and extracts the contact can be indirect. Some binding calls cover weakened binding; strength is not graded here.

Experiments:
[1] = target: p97/VCP (human (endogenous in AT01, Hu339 and liver tissue)) (UniProt P55072); test: co-IP; AT01 cells transfected with Z-RFP, 24 h later with WT gp78, WT gp78 and WT SVIP or mutant SVIP (VIMm); treated with MG132; IP for gp78, Western blot for p97/VCP
[2] = target: p97/VCP (human (endogenous in AT01, Hu339 and liver tissue)) (UniProt P55072); test: co-IP; AT01 cells transfected with non targeting siRNA or siSVIP (2 μM); IP of gp78, IB with anti-p97/VCP antibody

Row | binding [1] | binding [2] | Binder
1 | binds | – | WT SVIP (overexpressed from pCMV6-Entry-SVIP) (protein, UniProt Q8NHG7 1-77) MGLCFPCPGESAPPTPDLEEKRAKLAEAAERRQKEAASRGILDVQSVQEKRKKKEKIEKQIATSGPPPEGGLRWTVS
2 | – | binds | SVIP (endogenous) (protein, UniProt Q8NHG7 1-77) MGLCFPCPGESAPPTPDLEEKRAKLAEAAERRQKEAASRGILDVQSVQEKRKKKEKIEKQIATSGPPPEGGLRWTVS
